The values that follow come from patent US20190211098A1.

These are yes or no findings as the source states them, for the method shown. Some entries that bind do so weakly or less than the wild type.

The target in assay [1] is Mouse PILRA extracellular domain fused to human CD3 zeta chain transmembrane and intracellular domains, on 293-PILRA stable cells (mouse; human) (UniProt P20963). Nature of the assay: cell-based competitive ELISA: 293-PILRA stable cells, antibody titrated together with a fixed amount of mouse CD99-Fc, bound ligand-Fc detected with anti-human IgG-Fc-HRP.
Assay [2] has the same target. Put plainly: cell-based competitive ELISA: 293-PILRA stable cells, antibody titrated together with a fixed amount of mouse C12orf53-Fc, bound ligand-Fc detected with anti-human IgG-Fc-HRP.

B1: Anti-mouse PILRA antibody 12H1.8 (antibody, mouse IgG2a, kappa, V domains shown)
VH: QVQLQQSGAELVGPGTSVKISCQASGYTFTNYWIGWAKQRPGHGLEWIGDIYPGGGYTNYNKKFKGKATLTADKSSSTAYMQFSSLTSEDSAIYYCSRSRGHGSNFYWYFDVWGTGTTVTVSS
VL: DIVMTQSPKFMSTSVGDRVNITCRASQDVNTAVAWFQQKPGRSPKLLIYSASYRYTGPDHFTGSGSGTDFTFTISSVQAEDLAVYYCQQHYTTPLTFGAGTKLEIKR
On to B1, for which the binding result in assay [1] is “binds”.

B2: Anti-mouse PILRA antibody 12C6.9 (antibody, mouse IgG2a, kappa, V domains shown)
VH: QIQLVQSGPELKKPGETVKISCKASGYTFTTYGMSWMKQAPGKGLKWMGWINTYSGVPTYADDFKGRFAFSLETSASTAYLQISNLKDEDTARYFCARRDYGSSQWYFDVWSTGTTVTVSS
VL: DIVMTQSPKFMSISVGDRVSVTCKASQNVGTKVAWYQQKPGQSPKELIYSASYRFSGVPDRFTGSGSGTDFTLTISSVQSEDLAEYFCQQYNTYPLTFGAGTKLEIKR
Consider B2, for which the binding entry in assay [2] and in assay [1] was “binds” throughout.
